Drawing on patent US20240342138A1, “MICROTUBULE TARGETING AGENTS” (BPGbio, Inc., priority 2023, published 2024), this text covers Papp for 1 compound.

A short description of the data set: Blood brain barrier permeability (PVDF membrane coated with porcine brain polar lipid extract). In kind it is in vitro ADME. The following applies: PAMPA, read-out: Mean Pe. As to the method:
Preparation of Donor Solution a) 0.2 mM working solution was prepared by diluting 10 mM stock solution with DMSO. b) 10 μM donor solution (5% DMSO) was prepared by diluting 20 μL of working solution with 380 μL PBS. 2) 150 μL of 10 μM donor solutions to each well of the donor plate, whose PVDF membrane was precoated with 5 μL of 1% brain polar lipid extract (Porcine)/dodecane mixture. Duplicates were prepared. 3) 300 μL of PBS was added to each well of the PTFE acceptor plate. 4) The donor plate and acceptor plate were combined together and incubated for 4h at room temperature with shaking at 300 rpm. 5) Preparation of TO sample: 20 μL donor solution was transferred to new well followed by the addition of 250 μL PBS (DF: 13.5), 130 μL ACN (containing internal standard) as TO sample. 6) Preparation of acceptor sample: The plate was removed from incubator. 270 μL solution was transferred from each acceptor well and mixed with 130 μL ACN (containing internal standard) as acceptor sample. 7) Preparation of donor sample: […] was transferred from each donor well and mixed with 250 μL PBS (DF: 13.5), 130 μL ACN (containing internal standard) as donor sample. 8) Acceptor samples and donor samples were all analyzed by LC/MS/MS.

`CC(C)NCC(O)COc1ccc(CC(N)=O)cc1` (stereo not shown) [Atenolol]: the Papp at 4 h, 10 μM was under 0.00346 ×10⁻⁶ cm/s.
